# Library screening results

The values are deposited in ChEMBL (CHEMBL3988442, “University of Dundee, Small-Polar-MMV Screening Library” (2021)).

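Whole-cell assay for inhibitors of Mycobacterium tuberculosis growth, labelled Cornell in the record; the read-out is not stated. The concentration is filed as 10 mM, unlikely as a test dose, so the dose is not known. Higher means stronger inhibition (inferred from two other growth screens of the library). Of about 53,000 compounds tested this way, about 900 (1.7%) reached 50% or more in at least one test.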

Results are given as percent effect.
How 0% and 100% were set is not recorded. Most values in the screen are low, and negative values occur.
This is an unselected part of the compounds tested.

| structure | percent effect |
|---|---|
| `O=C1Nc2ccccc2/C1=C1\CCCCN1` | 13.96 |
| `Cc1cccc(CN2CCOC3(CCCN(CC(=O)N(C)C)C3)C2)n1.O=C(O)C(F)(F)F.O=C(O)C(F)(F)F` (centres undefined) | -34.52 |
| `NC(=O)C1CCN(CCCc2ccc(C(F)(F)F)cc2)CC1` | 3.052 |
| `CCc1nsc(N2CCN(C(=O)c3ccnc(N(C)C)c3)CC2)n1` | 0.1543 |
| `Cc1ccccc1CN(Cc1ccccn1)C(=O)CN(C)C(C)C` | 17.08 |
| `CC/N=c1\nc(NCC)nc2n1C(O)(Nc1cc(C)ccc1C)CS2` (centres undefined) | 8.554 |
| `COc1cccc(C(=O)N2CCC(Nc3ccc(C)nn3)CC2)c1` | 8.728 |
| `CC(=O)N1CCCC2(CCN(Cc3ccc(Cl)c(F)c3)C2)C1` (centres undefined) | 24.5 |
| `CCn1c(CN2CCCC2)nnc1C1CCN(Cc2ccccn2)CC1` | 7 |
| `COCCN1CCCC2(CCN(c3cccc(C(F)(F)F)n3)C2)C1=O` (centres undefined) | 14.23 |
| `O=C(C1SCCc2sccc21)N1CCN(CCO)CC1` (centres undefined) | 14.14 |
| `O=C(O)C(F)(F)F.O=C(O)C(F)(F)F.[H][C@]12CCC(=O)N(c3cccnc3)[C@@]1([H])CCN2c1ncc(F)cn1` | 17.09 |
| `CN1CCN(C(=O)c2cc(NC(=O)c3ccccc3)n(C)n2)CC1` | 1.83 |
| `O=C(O)C(F)(F)F.O=C(O)C(F)(F)F.O=C(c1ccncc1)N1CC2(CCNCC2)c2cc(Cl)ccc21` | 27.39 |
| `O=C(CC1COCCN1C(=O)c1cscn1)c1ccccc1` (centres undefined) | 10.98 |
| `CCC[C@H]1CN(S(=O)(=O)N(C)Cc2ccccc2)C[C@@H]1N` | 27.33 |
| `Cc1cccc(OCC2CCCN(C(=O)Cn3ccccc3=O)C2)c1` (centres undefined) | -6.656 |
| `O=C(O)c1ccccc1-c1c(-c2ccccc2)ncn1C[C@H]1CCCN1` | -16.41 |
| `Cc1cnn(CC2CCCN2C(=O)Cn2nc(C)c(Cl)c2C)c1` (centres undefined) | -11.3 |
| `[H][C@@]12CN(Cc3ccc(C)o3)C[C@]1([H])N(Cc1ccccn1)C(=O)O2` | -28.12 |
| `Cc1cc(-c2cnc(C)nc2CN(C)C(=O)c2cc(C3CC3)on2)on1` | 3.053 |
| `CN(CCO)C[C@@H]1CN(Cc2ccccc2-c2ccccc2)C[C@@H]1CO` | 6.95 |
| `c1ccc(-c2nc(CCNCc3ccccn3)co2)cc1` | 26.21 |
| `Cc1ccc(C(=O)N2CCC3(CC2)c2ccccc2[C@@H](N)[C@@H]3O)cc1F` | 27.45 |
| `CNc1nccc(C2CCCCN2Cc2cnn3cccnc23)n1` (centres undefined) | 8.734 |
| `CN(C(=O)c1cn(C)cn1)[C@@H]1CCC[C@@H](Oc2ccccc2)[C@@H]1O` | -18.13 |
| `O=C(c1cncs1)N1CCc2[nH]nc(Nc3ccccc3)c2C1` | 58.68 |
| `CC(=O)c1ccc(Cl)c(Cl)c1OCC(=O)NC(C)C` | 7.786 |
| `COc1ccc(Cl)c(-c2noc3ncn(CCC(=O)O)c(=O)c23)c1` | 15.79 |
| `O=C(NCCCC(=O)N1Cc2ccccc2C1)NCc1ccsc1` | -16.02 |
| `Cc1nn(CCCNC(=O)C2CCN(S(C)(=O)=O)CC2)c(Cl)c1Cl` | 51.75 |
| `CC[C@H](C)[C@H](NC(=O)c1cccc(-n2cnnn2)c1)C(=O)OC` | 1.268 |
| `Cc1ccc(NC(=O)CC2NC(N3CCc4ccccc43)=NC2=O)cc1` (centres undefined) | 38.03 |
| `Cc1cc(C)c(NC(=O)Nc2cnn(CC(O)CN(C)C)c2)c(C)c1` (centres undefined) | -11.07 |
| `COCCn1/c(=N\C(=O)CN(C)S(C)(=O)=O)sc2cc(C)ccc21` | -0.9294 |
| `O=S(=O)(NCCCn1cncn1)c1ccc2c(c1)CCC2` | -2.394 |
| `COc1ccc(F)c(F)c1C(=O)N1C[C@@H](CN(C)CCO)[C@@H](CO)C1` | 0.3076 |
| `NC(=O)NC(=O)CNC1(c2ccc(Cl)cc2)CCC1` | 4.686 |
| `[H][C@@]12C[C@H](NC(=O)c3cccc4[nH]c(C)nc34)CN1CCN(C)C2` | -17.81 |
| `Cc1n[nH]c(C)c1C1CCCN1C(=O)NCC(=O)NC(C)(C)C` (centres undefined) | 10.52 |
| `O=C(NCCNc1ncccn1)N1CCCC1c1ccc(F)cc1` (centres undefined) | 12.17 |
| `CC1COc2ccccc2N1C(=O)c1ccnc(-n2cncn2)c1` (centres undefined) | -9.225 |
| `CCN(CC1CCOC1)C(=O)c1ccc(-c2ccsc2)nc1C` (centres undefined) | 21.27 |
| `CCCS(=O)(=O)NC1CCN(c2cccc(F)c2C#N)CC1` | 20.18 |
| `Cc1ccccc1C1(CN)CCOCC1` | 34.93 |
| `Cc1nn(C)cc1-c1ccnc(N(C)Cc2cccs2)n1` | 3.089 |
| `CCc1cnc2c(c1Nc1ccc(OC)cc1)c(=O)n(C)c(=O)n2C` | -9.475 |
| `Cc1nc2c(c(N3CCC(O)(CN4CCCC4)CC3)n1)CCNCC2` | 5.319 |
| `O=S(=O)(Cc1ccccc1CN1CC[C@H](CO)[C@H](O)C1)c1ccccc1` | 26.69 |
| `CC(=O)NCc1noc2c1CN(CCN1CCCC1)CC2.O=C(O)C(F)(F)F.O=C(O)C(F)(F)F` | 30.02 |
| `CC1CCc2nn(CCNC(=O)Cc3cccs3)c(=O)cc2C1` (centres undefined) | 2.882 |
| `Cc1cc(C)n(CC(C)NC2CCN(Cc3cccc(O)c3)CC2)n1` (centres undefined) | 1.052 |
| `CN1CC(=O)N(c2cnn(C)c2)CC12CCN(Cc1cccs1)C2.O=C(O)C(F)(F)F.O=C(O)C(F)(F)F` (centres undefined) | -3.864 |
| `N#CC1(NC(=O)c2nccc3ccccc23)CCC2(CC1)OCCO2` | 15.43 |
| `Cn1nc(CN2CCCC2)c2c1CN(C(=O)Nc1cccc(F)c1)CC2.O=C(O)C(F)(F)F` | 29.03 |
| `O=C(O)C(F)(F)F.[H][C@]12CCN(Cc3c(C)noc3C)[C@@]1([H])CC[C@@H](COCC1CC1)O2` | 21.52 |
| `Cn1nc2c(cc1=O)CN(Cc1nc(-c3ccco3)no1)CC2` | -3.261 |
| `CC(c1nc(C2CC2)no1)N1CCN(c2ccc(C#N)cn2)CC1` (centres undefined) | 7.57 |
| `CC(C)c1noc(CN2CCN(C(=O)c3cccc(F)c3)CC2)n1` | 22.01 |
| `O=C(O)C(F)(F)F.[H][C@@]12CCN(CC3CC3)C[C@@]1([H])O[C@@H](c1nc(C)no1)C2` | 14.47 |
| `Cc1c(C(=O)NS(=O)(=O)c2ccsc2)cnn1CC(C)C` | -6.472 |
| `O=C(COc1cccc(F)c1)N1C[C@H](CO)C[C@H](CN2CCCC2)C1` | 20.08 |
| `[H][C@]12CCN(C(=O)c3ccoc3)[C@@]1([H])CC[C@H](COCc1ccccn1)O2` | -3.236 |
| `Cc1noc(C)c1-c1ccc(C2CCCN2C(=O)c2ccncn2)nc1` (centres undefined) | -61.7 |
| `Cc1ccc(-c2nc(CNC3CCc4ncnn4C3)no2)cc1` (centres undefined) | 9.189 |
| `Cc1cc(CN2CCC(CNC(=O)c3cnc(C)nc3C)C2)[nH]n1` (centres undefined) | -13.41 |
| `CCN1CCN(S(=O)(=O)c2cnc(NC(C)=O)s2)CC1` | 6.707 |
| `CC(C)N1CCC(c2nccnc2Nc2ncccn2)CC1` | 1.918 |
| `CCc1cc(NCCS(=O)(=O)N(C)C)nc(N2CCOCC2)n1` | 22.77 |
| `CCCN(CCC)c1ncc(S(=O)(=O)c2ccc(OC)cc2)c(N)n1` | 26.01 |
| `COc1cc(C(=O)N2CCC3(CC2)Nc2ccccc2NC3=O)ccn1` | 6.211 |
| `CC(C(=O)N1CCCCCC1)N1CCN(c2nccs2)CC1` (centres undefined) | -17.21 |
| `Cc1nc2sccn2c1CNC1(c2ccccc2F)CCCC1.O=C(O)CC(O)(CC(=O)O)C(=O)O` | 21.81 |
| `Cc1cnc(-c2nc(C3CCN(C(=O)Cc4ccsc4)CC3)no2)cn1` | -18.01 |
| `[H][C@@]12CCN(Cc3nccs3)C[C@@]1([H])O[C@@H](C)C2` | 27.85 |
| `[H][C@@]12CS(=O)(=O)C[C@]1([H])N(Cc1cc(Cl)cc(Cl)c1)CCN2CC1CC1` | 85.08 |
| `O=C(O)C(F)(F)F.[H][C@@]12CCN(c3ccc(C)nn3)[C@]1([H])CC[C@@H](C(=O)NCc1ccco1)O2` | 6.221 |
| `CS(=O)(=O)NC1CCN(C(=O)c2ccc(F)cc2)CC1` | 9.633 |
| `Cn1ccnc1CN1CCCCC1c1nc(-c2ccccc2)no1` (centres undefined) | 23.63 |
| `O=C(Cc1ccc(F)cc1Cl)N[C@@H]1CCNC[C@H]1O` | -7.487 |
| `CCCc1n[nH]c(C2CN(C(=O)CCCn3ccnc3C)CCO2)n1` (centres undefined) | -2.395 |
| `CN1CCCN(C(=O)NCc2csc(Br)c2)CC1` | 8.596 |
| `O=C(NC[C@@H]1CCCO1)c1cccnc1N1CCCC1c1ccccc1` (some centres undefined) | 4.902 |
| `COCC(=O)N1CC(=O)c2sc(Nc3ccc(F)cc3F)nc2C1` | -1.652 |
| `CN(C)C(CNC(=O)NCc1ccco1)c1cccs1` (centres undefined) | 30.86 |
| `CN(Cc1ccc(Cl)c(Cl)c1)C(=O)CNC(N)=O` | 6.266 |
| `CC(C)Nc1cccc(CNC(=O)N2CCC[C@@H]2CO)c1` | -7.13 |
| `Cc1nc2cc(NCc3cnn(C)c3)ccc2n1C` | 26.88 |
| `Cc1nc(C2CCCN2CCc2cccs2)no1` (centres undefined) | 3.2 |
| `Cc1cccc(C(C)C)c1NC(=O)CN(C)C(C)c1nccs1` (centres undefined) | 24.67 |
| `CC(C)Nc1ncnc2c1CCN(c1cc(C(F)(F)F)ncn1)CC2` | -3.215 |
| `CN(C(=O)CN1CCC(NC(=O)c2cccs2)CC1)c1ccccc1` | -6.355 |

For reference, 11 entries once more:

| structure | percent effect |
|---|---|
| `COCCn1/c(=N\C(=O)CN(C)S(C)(=O)=O)sc2cc(C)ccc21` | -0.9294 |
| `O=C(O)C(F)(F)F.O=C(O)C(F)(F)F.[H][C@]12CCC(=O)N(c3cccnc3)[C@@]1([H])CCN2c1ncc(F)cn1` | 17.09 |
| `CN1CCN(C(=O)c2cc(NC(=O)c3ccccc3)n(C)n2)CC1` | 1.83 |
| `Cc1cc(-c2cnc(C)nc2CN(C)C(=O)c2cc(C3CC3)on2)on1` | 3.053 |
| `Cc1cc(C)n(CC(C)NC2CCN(Cc3cccc(O)c3)CC2)n1` (centres undefined) | 1.052 |
| `COCCN1CCCC2(CCN(c3cccc(C(F)(F)F)n3)C2)C1=O` (centres undefined) | 14.23 |
| `O=C(NC[C@@H]1CCCO1)c1cccnc1N1CCCC1c1ccccc1` (some centres undefined) | 4.902 |
| `O=C(NCCCC(=O)N1Cc2ccccc2C1)NCc1ccsc1` | -16.02 |
| `[H][C@]12CCN(C(=O)c3ccoc3)[C@@]1([H])CC[C@H](COCc1ccccn1)O2` | -3.236 |
| `O=C(CC1COCCN1C(=O)c1cscn1)c1ccccc1` (centres undefined) | 10.98 |
| `CC(C)Nc1ncnc2c1CCN(c1cc(C(F)(F)F)ncn1)CC2` | -3.215 |